The list shows a part of the results.
Columns and labels:
Experiment in all cases: log2 fold change, soluble protein after heating vs DMSO (PISA); higher = thermal stabilisation; K562 cells, 10 uM, 30 min; active = over 0.2 and 3.5 SD of the protein, either way, in both replicates (recomputed)
[1] = compound: CC1=C(C=C(C=C1)NC(=O)C2=CC(=CC=C2)C(C)(C)C#N)NC3=CC4=C(C=C3)N=CN(C4=O)C
Procedure, shortened: (§1)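 Values are thermal stability changes relative to control samples and are taken from duplicates. They are stated as log2 fold changes. Before quantification by TMTpro 16plex LC-MS/MS with equalised channel sums, K562 cells at 2×10^6 cells/mL were treated with 10 μM compound for 30 min, heated in aliquots for 3 min across 48°C-58°C, pooled, extracted in PBS with 0.5% NP-40 at 4°C, and centrifuged at 21,000xg for 90 min to give the soluble supernatant.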

Chains of the proteins cited; added tags and fusions are not shown. Lines headed by an entry give the natural chain unless they say otherwise; changes in a name come on top.
UniProt Q15276: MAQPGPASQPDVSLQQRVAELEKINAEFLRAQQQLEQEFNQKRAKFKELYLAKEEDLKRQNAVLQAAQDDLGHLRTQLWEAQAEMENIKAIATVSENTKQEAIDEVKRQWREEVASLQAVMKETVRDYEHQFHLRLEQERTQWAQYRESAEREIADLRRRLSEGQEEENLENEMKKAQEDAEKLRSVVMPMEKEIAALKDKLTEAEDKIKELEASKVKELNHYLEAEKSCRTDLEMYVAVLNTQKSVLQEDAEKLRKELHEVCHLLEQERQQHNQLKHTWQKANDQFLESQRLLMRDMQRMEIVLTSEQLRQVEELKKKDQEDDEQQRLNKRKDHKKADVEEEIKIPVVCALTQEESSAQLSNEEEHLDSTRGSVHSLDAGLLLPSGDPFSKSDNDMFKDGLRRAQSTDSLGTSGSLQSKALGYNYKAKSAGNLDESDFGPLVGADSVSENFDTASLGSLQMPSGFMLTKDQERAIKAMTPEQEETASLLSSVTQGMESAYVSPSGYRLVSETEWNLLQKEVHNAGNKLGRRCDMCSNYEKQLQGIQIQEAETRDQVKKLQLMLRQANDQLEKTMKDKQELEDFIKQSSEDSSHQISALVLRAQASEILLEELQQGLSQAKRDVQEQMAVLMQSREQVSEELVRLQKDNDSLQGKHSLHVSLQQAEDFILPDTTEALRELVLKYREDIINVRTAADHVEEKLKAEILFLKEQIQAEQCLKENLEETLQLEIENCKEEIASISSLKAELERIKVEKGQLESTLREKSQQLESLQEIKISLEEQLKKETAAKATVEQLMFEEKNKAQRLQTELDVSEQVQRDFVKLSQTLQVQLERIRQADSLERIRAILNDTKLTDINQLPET
UniProt Q9H0U4: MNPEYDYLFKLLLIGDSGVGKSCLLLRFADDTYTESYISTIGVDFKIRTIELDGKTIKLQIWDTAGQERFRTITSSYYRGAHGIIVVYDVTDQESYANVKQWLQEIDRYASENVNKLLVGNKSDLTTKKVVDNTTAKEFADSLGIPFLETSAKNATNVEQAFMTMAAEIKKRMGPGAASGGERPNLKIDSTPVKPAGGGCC
UniProt Q15286: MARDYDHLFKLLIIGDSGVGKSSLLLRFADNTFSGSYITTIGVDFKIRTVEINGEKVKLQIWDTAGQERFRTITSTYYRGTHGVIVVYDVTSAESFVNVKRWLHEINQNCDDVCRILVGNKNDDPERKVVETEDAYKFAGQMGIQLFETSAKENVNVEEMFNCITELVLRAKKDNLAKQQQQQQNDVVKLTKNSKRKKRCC
UniProt Q9H2T7: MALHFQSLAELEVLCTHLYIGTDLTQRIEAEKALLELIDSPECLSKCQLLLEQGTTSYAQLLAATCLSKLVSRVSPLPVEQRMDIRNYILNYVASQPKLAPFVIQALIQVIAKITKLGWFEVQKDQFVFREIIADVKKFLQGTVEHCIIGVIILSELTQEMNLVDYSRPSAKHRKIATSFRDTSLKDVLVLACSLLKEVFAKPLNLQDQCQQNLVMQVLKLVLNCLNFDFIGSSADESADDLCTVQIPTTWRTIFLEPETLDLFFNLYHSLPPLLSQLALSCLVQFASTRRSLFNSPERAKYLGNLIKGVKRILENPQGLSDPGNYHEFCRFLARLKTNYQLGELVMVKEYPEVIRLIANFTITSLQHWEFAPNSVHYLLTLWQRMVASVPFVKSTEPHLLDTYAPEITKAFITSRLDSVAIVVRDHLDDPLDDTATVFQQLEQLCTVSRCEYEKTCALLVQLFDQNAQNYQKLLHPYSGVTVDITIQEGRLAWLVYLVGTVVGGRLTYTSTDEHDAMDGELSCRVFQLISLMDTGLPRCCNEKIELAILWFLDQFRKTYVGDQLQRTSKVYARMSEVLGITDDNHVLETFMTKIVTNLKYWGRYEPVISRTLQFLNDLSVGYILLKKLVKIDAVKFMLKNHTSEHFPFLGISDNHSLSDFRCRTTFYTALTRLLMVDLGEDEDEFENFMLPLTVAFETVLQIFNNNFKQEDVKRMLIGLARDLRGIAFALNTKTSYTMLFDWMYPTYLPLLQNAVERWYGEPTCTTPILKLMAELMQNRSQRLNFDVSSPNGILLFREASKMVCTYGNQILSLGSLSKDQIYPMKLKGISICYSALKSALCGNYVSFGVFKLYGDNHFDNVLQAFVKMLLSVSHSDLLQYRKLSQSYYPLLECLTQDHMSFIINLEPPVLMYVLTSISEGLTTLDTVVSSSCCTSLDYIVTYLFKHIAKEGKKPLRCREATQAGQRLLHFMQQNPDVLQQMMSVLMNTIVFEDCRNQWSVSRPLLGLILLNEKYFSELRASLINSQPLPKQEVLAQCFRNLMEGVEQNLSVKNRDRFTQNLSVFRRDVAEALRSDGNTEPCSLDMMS
UniProt P53611: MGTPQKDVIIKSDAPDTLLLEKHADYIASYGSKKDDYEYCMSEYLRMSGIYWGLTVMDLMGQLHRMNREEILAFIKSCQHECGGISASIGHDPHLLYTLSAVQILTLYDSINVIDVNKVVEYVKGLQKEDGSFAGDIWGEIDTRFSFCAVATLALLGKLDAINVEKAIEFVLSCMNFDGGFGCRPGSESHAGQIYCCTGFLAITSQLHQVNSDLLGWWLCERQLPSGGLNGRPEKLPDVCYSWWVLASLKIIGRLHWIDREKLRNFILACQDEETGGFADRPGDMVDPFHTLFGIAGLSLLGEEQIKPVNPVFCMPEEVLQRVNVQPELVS
UniProt Q13637: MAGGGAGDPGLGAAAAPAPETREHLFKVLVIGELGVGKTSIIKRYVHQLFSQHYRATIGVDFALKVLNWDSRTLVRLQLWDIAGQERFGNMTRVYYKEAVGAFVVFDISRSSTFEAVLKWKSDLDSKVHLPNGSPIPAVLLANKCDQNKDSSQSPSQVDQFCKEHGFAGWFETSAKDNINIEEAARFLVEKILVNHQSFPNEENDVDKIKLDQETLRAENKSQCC
UniProt Q13636: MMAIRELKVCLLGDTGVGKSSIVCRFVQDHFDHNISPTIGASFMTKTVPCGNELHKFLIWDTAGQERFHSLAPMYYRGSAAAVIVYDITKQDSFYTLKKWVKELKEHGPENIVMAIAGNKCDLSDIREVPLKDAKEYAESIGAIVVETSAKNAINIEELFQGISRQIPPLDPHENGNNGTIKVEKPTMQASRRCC
UniProt P51149, whole entry, looked up: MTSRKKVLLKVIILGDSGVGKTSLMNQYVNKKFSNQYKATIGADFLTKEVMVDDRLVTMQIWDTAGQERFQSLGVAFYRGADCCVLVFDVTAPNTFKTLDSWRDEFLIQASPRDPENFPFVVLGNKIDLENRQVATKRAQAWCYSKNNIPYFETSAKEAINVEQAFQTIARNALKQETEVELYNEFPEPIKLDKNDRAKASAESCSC
UniProt P98175: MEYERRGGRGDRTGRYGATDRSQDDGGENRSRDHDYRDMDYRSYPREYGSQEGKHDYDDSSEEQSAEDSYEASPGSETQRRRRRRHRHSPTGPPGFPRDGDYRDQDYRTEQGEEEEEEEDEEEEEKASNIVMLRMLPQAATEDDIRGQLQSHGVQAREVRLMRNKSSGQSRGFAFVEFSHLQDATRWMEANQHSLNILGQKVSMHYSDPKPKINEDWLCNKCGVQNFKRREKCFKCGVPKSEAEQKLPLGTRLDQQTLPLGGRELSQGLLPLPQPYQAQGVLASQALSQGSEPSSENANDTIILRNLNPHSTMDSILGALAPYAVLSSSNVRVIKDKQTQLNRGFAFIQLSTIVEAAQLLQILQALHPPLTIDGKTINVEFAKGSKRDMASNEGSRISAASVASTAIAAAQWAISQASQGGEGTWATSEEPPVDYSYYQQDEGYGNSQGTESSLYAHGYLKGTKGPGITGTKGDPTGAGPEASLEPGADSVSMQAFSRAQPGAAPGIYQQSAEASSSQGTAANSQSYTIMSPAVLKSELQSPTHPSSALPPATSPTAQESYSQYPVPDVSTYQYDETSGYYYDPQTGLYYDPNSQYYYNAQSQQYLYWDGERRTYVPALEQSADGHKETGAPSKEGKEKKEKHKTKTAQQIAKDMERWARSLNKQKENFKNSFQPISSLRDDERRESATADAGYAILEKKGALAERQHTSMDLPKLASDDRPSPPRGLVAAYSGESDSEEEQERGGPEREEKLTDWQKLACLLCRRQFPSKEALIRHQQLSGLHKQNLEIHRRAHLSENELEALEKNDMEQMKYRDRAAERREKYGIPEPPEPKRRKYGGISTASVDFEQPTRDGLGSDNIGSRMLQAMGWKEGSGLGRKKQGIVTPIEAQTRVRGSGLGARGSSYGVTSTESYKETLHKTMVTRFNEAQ
UniProt O60671: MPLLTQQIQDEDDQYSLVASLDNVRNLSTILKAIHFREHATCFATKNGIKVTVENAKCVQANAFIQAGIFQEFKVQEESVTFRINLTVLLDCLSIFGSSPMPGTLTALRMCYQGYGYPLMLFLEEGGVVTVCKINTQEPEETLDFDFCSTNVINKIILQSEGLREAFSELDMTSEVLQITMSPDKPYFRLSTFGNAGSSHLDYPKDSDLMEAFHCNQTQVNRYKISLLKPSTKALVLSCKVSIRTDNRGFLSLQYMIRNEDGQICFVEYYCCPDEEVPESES
UniProt O43251: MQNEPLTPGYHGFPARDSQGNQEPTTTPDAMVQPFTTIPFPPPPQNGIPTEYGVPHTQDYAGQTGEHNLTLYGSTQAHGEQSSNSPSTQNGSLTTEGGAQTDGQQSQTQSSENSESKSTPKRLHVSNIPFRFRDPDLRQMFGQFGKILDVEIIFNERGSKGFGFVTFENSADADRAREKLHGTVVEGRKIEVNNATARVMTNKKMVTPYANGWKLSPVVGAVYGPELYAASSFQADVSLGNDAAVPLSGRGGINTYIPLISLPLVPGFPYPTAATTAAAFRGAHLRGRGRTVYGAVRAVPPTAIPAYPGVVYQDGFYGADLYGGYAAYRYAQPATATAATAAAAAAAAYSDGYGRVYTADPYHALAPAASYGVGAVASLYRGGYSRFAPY
UniProt O60216: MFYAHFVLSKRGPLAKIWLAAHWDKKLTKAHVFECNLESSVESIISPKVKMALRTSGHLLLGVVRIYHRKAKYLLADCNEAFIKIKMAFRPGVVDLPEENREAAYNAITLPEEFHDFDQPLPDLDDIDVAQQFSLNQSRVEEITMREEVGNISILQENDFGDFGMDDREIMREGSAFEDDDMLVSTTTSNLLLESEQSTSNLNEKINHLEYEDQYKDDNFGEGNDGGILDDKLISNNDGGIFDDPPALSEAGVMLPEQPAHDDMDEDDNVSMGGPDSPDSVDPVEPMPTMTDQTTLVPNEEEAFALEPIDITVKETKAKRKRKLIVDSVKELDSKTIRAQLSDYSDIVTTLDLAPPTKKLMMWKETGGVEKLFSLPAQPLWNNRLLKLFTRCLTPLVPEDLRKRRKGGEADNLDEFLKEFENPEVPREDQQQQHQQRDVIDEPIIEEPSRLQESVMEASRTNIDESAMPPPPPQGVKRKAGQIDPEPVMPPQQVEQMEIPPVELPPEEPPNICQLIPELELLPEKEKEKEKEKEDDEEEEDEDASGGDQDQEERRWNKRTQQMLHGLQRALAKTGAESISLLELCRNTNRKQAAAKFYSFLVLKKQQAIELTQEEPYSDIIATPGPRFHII
UniProt Q9UL25: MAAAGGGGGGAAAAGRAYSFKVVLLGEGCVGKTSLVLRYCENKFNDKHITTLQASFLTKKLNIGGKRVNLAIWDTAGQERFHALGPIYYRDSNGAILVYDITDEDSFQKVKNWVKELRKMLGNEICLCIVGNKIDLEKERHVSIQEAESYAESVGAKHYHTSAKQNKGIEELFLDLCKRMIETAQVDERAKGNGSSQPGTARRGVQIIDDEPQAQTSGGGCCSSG

[2] = compound: CC1=C(C=C(C=C1)NC(=O)C2=CC(=CC=C2)N(C)C)NC(=O)C3=CC=C(C=C3)O
Procedure, shortened: as §1

[3] = compound: CC1=CC=C(C=C1)SC2=C3C=C(SC3=CN=C2)C(=O)N
Procedure, shortened: as §1

[4] = compound: CC1=NC(=CC=C1)C2=C(N=C(N2)C(C)(C)C)C3=CC4=NC=CN=C4C=C3
Procedure, shortened: as §1

[5] = compound: CCCCN(Cc1ccc(C(=O)NO)cc1)C(=O)Nc1ccccc1 [Nexturastat A]
Procedure, shortened: as §1

[6] = compound: CCCS(=O)(=O)Nc1ccc(F)c(C(=O)c2c[nH]c3ncc(-c4ccc(Cl)cc4)cc23)c1F [vemurafenib]
Procedure, shortened: as §1

[7] = compound: CCCS(=O)(=O)Nc1ccc(F)c(C(=O)c2c[nH]c3ncc(Cl)cc23)c1F
Procedure, shortened: as §1

[8] = compound: CCCc1cc(C)[nH]c(=O)c1CNC(=O)c1cc(-c2ccnc(N3CCN(C)CC3)c2)cc2c1cnn2C(C)C
Procedure, shortened: as §1

[9] = compound: CCN(CC)Cc1ccc2cc(COC(=O)Nc3ccc(C(=O)NO)cc3)ccc2c1 [givinostat]
Procedure, shortened: as §1

[10] = compound: CCN(CCCOc1ccc2c(Nc3cc(CC(=O)Nc4cccc(F)c4)[nH]n3)ncnc2c1)CCOP(=O)(O)O [barasertib]
Procedure, shortened: as §1

[11] = compound: CC[C@@H]1C(=O)N(C)c2cnc(Nc3ccc(C(=O)NC4CCN(C)CC4)cc3OC)nc2N1C1CCCC1
Procedure, shortened: as §1

[12] = compound: CC[C@@H]1C(=O)N(C)c2cnc(Nc3ccc(C(=O)N[C@H]4CC[C@H](N5CCN(CC6CC6)CC5)CC4)cc3OC)nc2N1C(C)C [volasertib]
Procedure, shortened: as §1

[13] = compound: CC[C@H](C)N1C=C(C2=C(C=C(C=C21)C3=CN=C(C=C3)N4CCNCC4)C(=O)NCC5=C(C=C(NC5=O)C)C)C
Procedure, shortened: as §1

[14] = compound: CC[C@H](C)[C@@H](C(=O)N[C@@H]([C@@H](C)O)C(=O)N[C@@H](CC(C)C)C(=O)[C@]1(CO1)C)NC(=O)[C@H]([C@@H](C)CC)N(C)C(=O)C [epoxomicin]
Procedure, shortened: as §1

[15] = compound: CCn1c(C(=O)N(C2CC2)C2CC2)cc2c3c(ncn3C)c(Nc3cc(C)n(C)n3)nc21
Procedure, shortened: as §1

[16] = compound: CCn1cc(-c2ccnc3[nH]c(-c4cccc(CN(C)C)c4)cc23)c(-c2ccc(NC(=O)N(C)C)cc2)n1
Procedure, shortened: as §1

[17] = compound: CN(C)CC(=O)Nc1ccc2[nH]c(=O)c3ccccc3c2c1
Procedure, shortened: as §1

[18] = compound: CN(CCOC1=CC=C(C=C1)C[C@H]2C(=O)NC(=O)S2)C3=CC=CC=N3 (racemic) [rosiglitazone]
Procedure, shortened: as §1

[19] = compound: CN1C2=C(C3=C1C(=O)N(N=C3)CC4=CC(=CC=C4)N)SC(=C2)S(=O)C
Procedure, shortened: as §1

[20] = compound: CN1CCC(CNc2ccc3ncc(-c4cccc(OC(F)(F)F)c4)n3n2)CC1
Procedure, shortened: as §1

Measured: log2 fold change

RABEP1 (UniProt Q15276)
inactive: [1] 0.005 | [2] -0.034 | [3] 0.004 | [4] -0.006 | [5] 0.175 | [6] 0.014 | [7] 0.038 | [8] 0.02 | [9] 0.076 | [10] 0.029 | [11] 0.037 | [12] -0.128 | [13] -0.015 | [14] -0.017 | [15] -0.026 | [16] -0.007 | [17] 0.016 | [18] 0.025 | [19] -0.032 | [20] -0.062

RAB1B (UniProt Q9H0U4)
inactive: [1] 0.03 | [2] 0.026 | [3] -0.035 | [4] 0.067 | [5] -0.063 | [6] -0.037 | [7] -0.064 | [8] -0.234 | [9] 0.017 | [10] -0.007 | [11] -0.015 | [12] 0.063 | [13] -0.087 | [14] -0.004 | [15] 0.023 | [16] -0.006 | [17] -0.039 | [18] 0.058 | [19] -0.075 | [20] 0.054

RAB35 (UniProt Q15286)
inactive: [1] 0.027 | [2] -0.002 | [3] 0.007 | [4] 0.014 | [5] -0.091 | [6] -0.015 | [7] -0.043 | [8] -0.039 | [9] -0.031 | [10] -0.03 | [11] 0.092 | [12] 0.091 | [13] -0.061 | [14] 0.009 | [15] 0.098 | [16] 0.001 | [17] -0.008 | [18] -0.058 | [19] -0.048 | [20] 0.079

RANBP17 (UniProt Q9H2T7)
inactive: [1] 0.116 | [2] 0.05 | [3] 0.861 | [4] 0.117 | [5] -0.038 | [6] 0.138 | [7] 0.022 | [8] 0.129 | [9] 0.113 | [10] 0.079 | [11] -0.184 | [12] -0.196 | [13] 0.095 | [14] -0.009 | [15] -0.044 | [16] -0.109 | [17] 0.06 | [18] 0.129 | [19] -0.037 | [20] -0.224

RABGGTB (UniProt P53611)
inactive: [1] 0.068 | [2] 0.019 | [3] -0.004 | [4] 0.048 | [5] 0.023 | [6] 0.036 | [7] 0.044 | [8] -0.021 | [9] -0.028 | [10] 0.034 | [11] -0.02 | [12] -0.109 | [13] 0.008 | [14] -0.017 | [15] -0.034 | [16] -0.04 | [17] -0.001 | [18] 0.069 | [19] -0.085 | [20] -0.009

RAB32 (UniProt Q13637)
inactive: [1] -0.001 | [2] -0.024 | [3] 0.02 | [4] -0.015 | [5] 0.034 | [6] 0.064 | [7] 0.021 | [8] -0.026 | [9] 0.007 | [10] -0.041 | [11] 0.025 | [12] 0.035 | [13] -0.056 | [14] -0.011 | [15] -0.023 | [16] 0.041 | [17] 0.01 | [18] 0.011 | [19] 0.103 | [20] 0.116

RAB31 (UniProt Q13636)
inactive: [1] -0.024 | [2] -0.021 | [3] -0.002 | [4] -0.021 | [5] -0.035 | [6] -0.016 | [7] -0.019 | [8] 0.001 | [9] -0.088 | [10] -0.001 | [11] 0.03 | [12] 0.036 | [13] -0.029 | [14] 0.011 | [15] 0.037 | [16] -0.068 | [17] 0.018 | [18] 0.004 | [19] -0.073 | [20] -0.016

RAB7A (UniProt P51149)
inactive: [1] -0.024 | [2] 0.005 | [3] 0.004 | [4] -0.007 | [5] -0.009 | [6] 0.003 | [7] -0.006 | [8] 0.001 | [9] 0.007 | [10] -0.004 | [11] 0.014 | [12] 0.061 | [13] -0.024 | [14] 0.005 | [15] 0.014 | [16] 0.006 | [17] -0.024 | [18] -0.023 | [19] -0.042 | [20] 0.023

RBM10 isoform 5 (UniProt P98175)
inactive: [1] 0.002 | [2] -0.021 | [3] -0.039 | [4] -0.053 | [5] 0.119 | [6] 0.018 | [7] 0 | [8] -0.105 | [9] 0.019 | [10] -0.04 | [11] 0.044 | [12] -0.18 | [13] 0.063 | [14] -0.078 | [15] -0.028 | [16] -0.036 | [17] -0.143 | [18] 0.007 | [19] 0.176 | [20] 0.131

RAD1 (UniProt O60671)
inactive: [1] 0.015 | [2] -0.005 | [3] 0.01 | [4] 0.043 | [5] -0.114 | [6] -0.086 | [7] 0.02 | [8] -0.012 | [9] -0.057 | [10] 0 | [11] -0.001 | [12] -0.034 | [13] -0.031 | [14] -0.003 | [15] 0.03 | [16] -0.031 | [17] 0.059 | [18] 0.01 | [19] -0.022 | [20] -0.053

RBFOX2 isoform 8 (UniProt O43251)
inactive: [1] -0.088 | [2] -0.061 | [3] 0.176 | [4] 0.058 | [5] 0.054 | [6] -0.024 | [7] 0.132 | [8] 0.002 | [9] 0.016 | [10] 0.056 | [11] -0.001 | [12] -0.415 | [13] 0.057 | [14] -0.023 | [15] -0.039 | [16] 0.126 | [17] -0.069 | [18] -0.028 | [19] -0.033 | [20] -0.004

RAD21 (UniProt O60216)
inactive: [1] -0.016 | [2] 0.02 | [3] -0.02 | [4] -0.014 | [5] 0.049 | [6] 0.024 | [7] 0.047 | [8] -0.028 | [9] 0.006 | [10] 0 | [11] -0.019 | [12] -0.071 | [13] 0.017 | [14] 0.036 | [15] -0.017 | [16] 0.019 | [17] -0.011 | [18] -0.006 | [19] -0.059 | [20] -0.101

RAC2 (UniProt P15153)
inactive: [1] 0.103 | [2] -0.001 | [3] -0.043 | [4] 0.002 | [5] -0.102 | [6] -0.008 | [7] -0.043 | [8] 0.134 | [9] -0.068 | [10] -0.015 | [11] 0.028 | [12] 0.022 | [13] -0.049 | [14] 0.031 | [15] 0.013 | [16] -0.006 | [17] -0.078 | [18] -0.019 | [19] -0.047 | [20] 0.11

RAN (UniProt P62826)
inactive: [1] -0.017 | [2] 0.004 | [3] -0.042 | [4] -0.025 | [5] -0.022 | [6] -0.026 | [7] -0.092 | [8] -0.04 | [9] -0.031 | [10] -0.004 | [11] 0.005 | [12] 0.076 | [13] -0.032 | [14] 0.027 | [15] 0.016 | [16] -0.011 | [17] -0.04 | [18] 0.006 | [19] -0.034 | [20] -0.028

RAB21 (UniProt Q9UL25)
inactive: [1] -0.001 | [2] -0.006 | [3] 0.028 | [4] -0.01 | [5] -0.081 | [6] -0.067 | [7] 0.001 | [8] -0.036 | [9] -0.023 | [10] -0.018 | [11] 0.059 | [12] 0.054 | [13] -0.028 | [14] -0.075 | [15] 0.002 | [16] -0.002 | [17] 0.034 | [18] -0.002 | [19] -0.079 | [20] 0.005

Source: the supplement of paper PMC10849652
